In paper PMC7819943, “Rice protein-binding microarrays: a tool to detect cis-acting elements near promoter regions in rice”:
The list shows a part of the results.

The sequences below were run against T1, OsSMF1 (Oryza sativa, UniProt Q6ZLB0 1-436) (assay: protein-binding microarray (RPBM); PBS, 2% BSA, 51.3 ng/ul salmon testes DNA, 50 uM zinc acetate, 200 nM TF, 25 C, 1 h; high values mean tight binding). Settings: protein: recombinant; tags: N-terminal polyhistidine and DsRed monomer fusion (pET32a); chain copies: 2; label: CyDye5-dUTP incorporated in the synthesized complementary strand; 3' TTTTT single-stranded linker to array surface; dsDNA, one strand shown.
T1 sequence: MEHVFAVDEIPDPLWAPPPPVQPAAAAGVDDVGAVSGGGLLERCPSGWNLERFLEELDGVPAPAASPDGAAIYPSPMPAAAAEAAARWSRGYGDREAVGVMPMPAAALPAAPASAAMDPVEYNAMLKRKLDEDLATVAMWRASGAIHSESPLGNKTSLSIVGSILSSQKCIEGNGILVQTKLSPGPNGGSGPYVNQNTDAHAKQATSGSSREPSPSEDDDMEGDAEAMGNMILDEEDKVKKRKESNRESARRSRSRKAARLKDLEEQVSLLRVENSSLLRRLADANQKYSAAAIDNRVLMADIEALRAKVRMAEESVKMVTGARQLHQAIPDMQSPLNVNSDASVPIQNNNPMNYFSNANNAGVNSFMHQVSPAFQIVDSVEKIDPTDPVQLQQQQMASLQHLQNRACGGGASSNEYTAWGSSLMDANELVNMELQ
How it was run: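 Per-feature fluorescence intensity (arbitrary units), read on an Axon 4000B scanner, is the binding signal. Transcription factors carrying an N-terminal polyhistidine tag and DsRed fusion were expressed in E. coli BL21-CodonPlus and purified on Ni–NTA. A custom Agilent array, made double-stranded by primer extension with Cy5-dUTP and blocked with 2% BSA, was incubated with 200 nM protein in PBS, 2% BSA, salmon testes DNA and 50 µM zinc acetate at 25 °C for 1 h and then washed.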

Sequence	binding signal
GAGGCGGAGCTACAAATATCCATCCCTTCCAATCCAGGCTCGGAGTCACCTAGTGCAG	3220 fluorescence intensity (a.u.)
TAGATTAATTTGGAATGGAGGGAGTATATGAGTAAGCTAACGGAGTCACCTAGTGCAG	3200 fluorescence intensity (a.u.)
GCGTGATTCATGCAGCGTGTGCGAAGTACACCAGATCTCACGGAGTCACCTAGTGCAG	3850 fluorescence intensity (a.u.)
CTTAATTACGTCATCGTCAACTCGCCGTTTAGTTTAGTCTCGGAGTCACCTAGTGCAG	10800 fluorescence intensity (a.u.)
CACAGTTGTGTGACCGACGAGCTTGTTTTATAAAATTACACGGAGTCACCTAGTGCAG	3450 fluorescence intensity (a.u.)
GAATGGAATTGGAACGTTTCTCTGACACGTGGGGCCCACGCGGAGTCACCTAGTGCAG	11200 fluorescence intensity (a.u.)
CAGAAGACGCCGAAGACTGCTCCGCCACATCACTAATGCCCGGAGTCACCTAGTGCAG	5280 fluorescence intensity (a.u.)
ACCTCTCCCCGTGAAATAGCCCACGTATGCGCCCCGCGTGCGGAGTCACCTAGTGCAG	8860 fluorescence intensity (a.u.)
GCGCGCGCGGCGTTCGGGAGGAAGCGGAAGAGCGCGCCGGCGGAGTCACCTAGTGCAG	47000 fluorescence intensity (a.u.)
AACTGACGCCGCCGCCGCGCGCAGTCGATGCATGTTGGGTCGGAGTCACCTAGTGCAG	4540 fluorescence intensity (a.u.)
CACGGGGAAGAAGAAGAGGAGGTTCGCGGCGGGTGATTTGCGGAGTCACCTAGTGCAG	3210 fluorescence intensity (a.u.)
AGGCAAGAAAACGGAGGAGGAAAACTAGGCCACGCATTGACGGAGTCACCTAGTGCAG	4060 fluorescence intensity (a.u.)
CGGCGGTGGACTCCCGCGCGCGTCGGCGGGTGCCTGCGGCCGGAGTCACCTAGTGCAG	3170 fluorescence intensity (a.u.)
GCTCATGGCCACAGGGCTTAACATAGAATCATCTTAATTGCGGAGTCACCTAGTGCAG	3640 fluorescence intensity (a.u.)
GTTTCGCGCTCGTGGTTTCTTACTTGACGCACGTGCAATCCGGAGTCACCTAGTGCAG	3260 fluorescence intensity (a.u.)
CTATAGTATGACTCAACTTTATAAACTACATTCTAACTAACGGAGTCACCTAGTGCAG	4410 fluorescence intensity (a.u.)
AGAGTGTGTTCTTGGTCAGATGCCACTTGTATTCCACTACCGGAGTCACCTAGTGCAG	3860 fluorescence intensity (a.u.)
TAGGATGACATGTGAGGCCCACATGTCAGTGGGCCCCACACGGAGTCACCTAGTGCAG	25600 fluorescence intensity (a.u.)
TGCACTCATACCACGACACACGCACACACGTGTCCCTAACCGGAGTCACCTAGTGCAG	7120 fluorescence intensity (a.u.)
CATTTTAGGTTGCAGCTTATTTGATGCTATGGACACCATCCGGAGTCACCTAGTGCAG	29700 fluorescence intensity (a.u.)
AACGTACGGATAACGGATGGATCGCCTCGTCCGTCTTGGCCGGAGTCACCTAGTGCAG	23700 fluorescence intensity (a.u.)

Sequence	binding signal
GACCCCACGTGTCAGGATGCCACGTCGGCAAGCCATCCTCCGGAGTCACCTAGTGCAG	33900 fluorescence intensity (a.u.)
CGCTCTTGAGTCTTGACTTTCTCTGCCACGAGAGCTCATCCGGAGTCACCTAGTGCAG	3280 fluorescence intensity (a.u.)
CTCATCTCCTTTCGTACCGTATATAAGAGCCACCCCATGCCGGAGTCACCTAGTGCAG	3430 fluorescence intensity (a.u.)
AAATCGGATTTTCGCGTGCGGGTTCTGATGACGTCCGCACCGGAGTCACCTAGTGCAG	11600 fluorescence intensity (a.u.)
GTGCAGTCTGCGGTTCTCTCTTGATGACTGGCTCATAATGCGGAGTCACCTAGTGCAG	4370 fluorescence intensity (a.u.)
GCCTCACAACCCGCATGGACACTGACATCGGCATCATCATCGGAGTCACCTAGTGCAG	4260 fluorescence intensity (a.u.)
TACGTGTGAGTCTTCAACCGTCCACATCAGCGTGGAGAAGCGGAGTCACCTAGTGCAG	13900 fluorescence intensity (a.u.)
TTGAATAGTGAGTCATGCAAACGGTTCCTTCTCAAACCTACGGAGTCACCTAGTGCAG	8160 fluorescence intensity (a.u.)
GCCGCCCAAGAAGAGGACACGCAGGACGTACAGCCGTGGCCGGAGTCACCTAGTGCAG	3470 fluorescence intensity (a.u.)
TATCAAATTTCTTTTCGAGTCCTACCAATCGACGTGTATCCGGAGTCACCTAGTGCAG	3710 fluorescence intensity (a.u.)
ACCAGCAGCCATCACCGCATGCGTTACTACGTGTGTGCATCGGAGTCACCTAGTGCAG	3420 fluorescence intensity (a.u.)
TTTGCTGCATCACCATTGTCATCCATATATTCCATATTCCCGGAGTCACCTAGTGCAG	5740 fluorescence intensity (a.u.)
CTTTAAACTTGCCAACATGCCACGTCAGCAGAAACCACTACGGAGTCACCTAGTGCAG	17000 fluorescence intensity (a.u.)
CATGCTGAGTCAATAGCTTTCTTTGGTGGTGGATCAAGGGCGGAGTCACCTAGTGCAG	10700 fluorescence intensity (a.u.)
GCGGAGGAGCGGATAAGCCAAGCTCATGGCCTCCTCCGCGCGGAGTCACCTAGTGCAG	20200 fluorescence intensity (a.u.)
CACTGCTTTCCCTCCCACCTCACCACACACCACGCCACTCCGGAGTCACCTAGTGCAG	4960 fluorescence intensity (a.u.)
ACTTTATGGCTAAATCCCGGGCGTGACTGCGTGGAGCATCCGGAGTCACCTAGTGCAG	3870 fluorescence intensity (a.u.)
AGCCTGCCTCTCCCGGTGCCACGCAGCCTCGGAACCCACACGGAGTCACCTAGTGCAG	3540 fluorescence intensity (a.u.)
AACCCTCCCCTCCCGTGGATCATCGCCGCCGCCGCCGGTACGGAGTCACCTAGTGCAG	3230 fluorescence intensity (a.u.)
GCTCTCTCTTCTCAACTATGAACCCTATTCCACGAAAGCACGGAGTCACCTAGTGCAG	3430 fluorescence intensity (a.u.)
CTAGCCGCCCGCGCCGCCACCTCGCCGGCCTCTAGCCGCCCGGAGTCACCTAGTGCAG	3700 fluorescence intensity (a.u.)

Sequence	binding signal
CCTCGCAACAAAACCGGAGCCACTCGAGCGAGTGAAAACGCGGAGTCACCTAGTGCAG	4920 fluorescence intensity (a.u.)
CATCAAACAACCAGTTTCTTAGGATGTCTTTTAACCGTGACGGAGTCACCTAGTGCAG	23200 fluorescence intensity (a.u.)
TACCGTCCCTCAACTTTATGTCGAGTCTATATGACATACCCGGAGTCACCTAGTGCAG	4220 fluorescence intensity (a.u.)
CCCCGCCGCCGTCCATCGCCGCCGCCGCGTCACTCTTGCACGGAGTCACCTAGTGCAG	10400 fluorescence intensity (a.u.)
TCCATCCCAAAGCTCCACTCCACGTACGCCTCGGGATTTGCGGAGTCACCTAGTGCAG	4680 fluorescence intensity (a.u.)
GCACGCTCAATTACCATACACATCAGCTAACAAGTAATAACGGAGTCACCTAGTGCAG	3140 fluorescence intensity (a.u.)
ATTTATTGGTGCTGACCATCTAGAGTGAGTTGATGCCTTGCGGAGTCACCTAGTGCAG	3670 fluorescence intensity (a.u.)
GTGGGTGTATAGACCAAGCTCACGTGGCCGCCTCGAGCGTCGGAGTCACCTAGTGCAG	5100 fluorescence intensity (a.u.)
CCGCACGAAGCCACGTACACAATTGCGTGACGGAACCCAACGGAGTCACCTAGTGCAG	6320 fluorescence intensity (a.u.)
GCTCATTTATTGCCGGTTGGTACGCATCACTTGAGCGTTTCGGAGTCACCTAGTGCAG	3860 fluorescence intensity (a.u.)
AATTATTTGTTTATTCCTTATGACTAGATAGTAAACATATCGGAGTCACCTAGTGCAG	4290 fluorescence intensity (a.u.)
TTCTTCCCCGAGCAGCCAGCGCTGCCGTCACTGCTCTGCTCGGAGTCACCTAGTGCAG	3460 fluorescence intensity (a.u.)
CCATGCCACATACGGATCTATGTAAGGGTCATTGTCTTCCCGGAGTCACCTAGTGCAG	3460 fluorescence intensity (a.u.)
CGTCGCCTCGCCTCGTCACGGCCGCCTCCGCCATCGCCTCCGGAGTCACCTAGTGCAG	6060 fluorescence intensity (a.u.)
GGCCCCTGCGCTTGCGTAGGTGAAGCCTGCCCTGTGTAAGCGGAGTCACCTAGTGCAG	3210 fluorescence intensity (a.u.)
ACACCCAACCCGATCCACATCATCCCCAAACCTCCCTTCCCGGAGTCACCTAGTGCAG	6200 fluorescence intensity (a.u.)
AAGTTTTGCACATACTTTTCTATAATTATGTCATCACATCCGGAGTCACCTAGTGCAG	4210 fluorescence intensity (a.u.)
TGGGTGATTGATTAGTACTACTGCTGCATCTGCACTGCATCGGAGTCACCTAGTGCAG	18800 fluorescence intensity (a.u.)
TAGTCGATGGGCTGGATGTGGGACTGAGCGTTGGGCCGGGCGGAGTCACCTAGTGCAG	3760 fluorescence intensity (a.u.)
AAGAAGCTAGCCACGTAAGATAATCCGCGCAATAAGTCAGCGGAGTCACCTAGTGCAG	10000 fluorescence intensity (a.u.)
TGTGGAATTGGTGAAGAACCTAGTCAGTAGTCACCATCGACGGAGTCACCTAGTGCAG	3770 fluorescence intensity (a.u.)

Sequence	binding signal
CCCTCCACCTCACTCGCCCACGTGGCGGGACGCATCTGGCCGGAGTCACCTAGTGCAG	13600 fluorescence intensity (a.u.)
GCCTCGTCGTAGTCAACACCTTGACGCGTCGGACAAATCACGGAGTCACCTAGTGCAG	4250 fluorescence intensity (a.u.)
TCGGATGAGTGGCTTATAGATTTGAATTTGATGGTCTGCTCGGAGTCACCTAGTGCAG	3490 fluorescence intensity (a.u.)
CGATCATGCCGTGACGTACGCTTTGAAACTCGCAGCTAGCCGGAGTCACCTAGTGCAG	5040 fluorescence intensity (a.u.)
TGTCCGTCACGAAATCTCCAATCGCGTCATCAGCTATACCCGGAGTCACCTAGTGCAG	11100 fluorescence intensity (a.u.)
GGTCAAATCCCACACACACGCCGTAGGATCCAGTCAATGGCGGAGTCACCTAGTGCAG	3200 fluorescence intensity (a.u.)
AAGAGGTGGAGTTGAGTTTAAACGGCTACACAACTCCACTCGGAGTCACCTAGTGCAG	3210 fluorescence intensity (a.u.)
CGGTGGGATTGGTTTAACGTGGGTGCTAATGGGGAAGCTACGGAGTCACCTAGTGCAG	4620 fluorescence intensity (a.u.)
GATCATCGTCCTATTTGGCTTTCGGCGGCCAGCCCGCCTCCGGAGTCACCTAGTGCAG	3620 fluorescence intensity (a.u.)
TTCTCCAGCATCGTATACGTGTCTAATTGTGATTTTATATCGGAGTCACCTAGTGCAG	3810 fluorescence intensity (a.u.)
CAAAGGAACACATCTGGGTCATCAGACAACTCAATAGAGTCGGAGTCACCTAGTGCAG	43000 fluorescence intensity (a.u.)
ACACATGGAACTTGTGCCATATATCTGTAGGTGTGAAAATCGGAGTCACCTAGTGCAG	41300 fluorescence intensity (a.u.)
GGTGCGTGTTCGGGATGGGGTTCGGGTTCAATTTCAGGTTCGGAGTCACCTAGTGCAG	3540 fluorescence intensity (a.u.)
GCCTCGAACGACGTGTGGACGCGATGGAAGATGCGTTCTGCGGAGTCACCTAGTGCAG	3210 fluorescence intensity (a.u.)
AAAGCGTTCCGCGGCGCCGCCGTGGCGTCCGGCGTCCGGCCGGAGTCACCTAGTGCAG	3900 fluorescence intensity (a.u.)
GTGTACACCTCCCTCAATATAAACTTAGATACCCACGTCACGGAGTCACCTAGTGCAG	4410 fluorescence intensity (a.u.)
CCACTACCACTACAACTGTATCCTACTGTGACACGCTCCACGGAGTCACCTAGTGCAG	3260 fluorescence intensity (a.u.)
GGTTGCGATGCTGTTATTGTCATGCCTGTGACAACGCCTGCGGAGTCACCTAGTGCAG	3810 fluorescence intensity (a.u.)
GTATGATATTTATGCTTTTCTACACGTTCCTGAAAGGATGCGGAGTCACCTAGTGCAG	3150 fluorescence intensity (a.u.)
TTCCGGCATGCTCAACAATTGGTCCAGGTGTTTGTTCCAGCGGAGTCACCTAGTGCAG	42200 fluorescence intensity (a.u.)
CCCCGATCCCCTCCGTCATCGCTCCTAACCAATCAGCGCACGGAGTCACCTAGTGCAG	4100 fluorescence intensity (a.u.)
